# US6080791A, “Method of treating a viral condition by inhibiting membrane fusion” (priority 1992, dated 2000)
# Tested on: hemoglobin
# Test: Hb control (quenching of OD570 of hemoglobin)
# Parameters: species or system human
# Conditions: not given
row,Structure (SMILES),loss of OD due to redox activity
1,"Oc1ccc(Cl)c2ccccc12 [Compound 101, 4-chloro-1-naphthol]",complete loss of OD due to redox activity
2,"COc1ccc(O)c2ccccc12 [Compound 107, 4-methoxy-1-naphthol]",complete loss of OD due to redox activity

# Tested on: not listed separately
# Test: pH control
# Conditions: not given
row,Structure (SMILES),effect on the pH of the reactions
1,"O=C1C=CC(=O)c2c(O)cccc21 [Compound 119, 5-hydroxy-1,4-naphthoquinone]",none

# Same assay, conditions: 0.1 mM
row,Structure (SMILES),effect on the pH of the reactions
1,"O=C1C=CC(=O)c2cc3ccccc3cc21 [Compound 114, 1,4-anthraquinone]",none
2,"Oc1ccc2ccccc2c1O [Compound 124, 1,2-dihydroxynaphthalene]",none

# Same assay, conditions: 1 mM
row,Structure (SMILES),effect on the pH of the reactions
1,"CC1=CC(=O)CC(C)(C)C1=O [Compound 84, 2,6,6-trimethyl-2-cyclohexene-1,4-dione]",none
2,"O=C(O)[C@@H]1[C@H](C(=O)O)[C@@H]2C=C[C@H]1C2 [Compound 89, cis-5-norbornene-endo-2,3-dicarboxylic acid]",none
3,"O=C1C=CC(=O)c2ccccc21 [Compound 90, 1,4-naphthoquinone]",none
4,"O=C(O)C1C=CCC2C(=O)C=CC(=O)C12 (stereo not drawn) [Compound 91, 5,8-dioxo-1,4,4A,5,8,8A-hexahydro-1-naphthalene carboxylic acid]",none
5,"Cc1c(O)ccc(O)c1C [Compound 99, 2,3-dimethylhydroquinone]",none
6,"Cc1cc(O)c(C)cc1O [Compound 116, 2,5-dimethylhydroquinone]",none
7,"CC(C)(C)c1cc(O)ccc1O [Compound 117, tert-butylhydroquinone]",none
8,"CC1=CC(=O)c2ccccc2C1=O [Compound 118, 2-methyl-1,4-naphthoquinone]",none
9,"Cl.Nc1ccc(O)c2ccccc12 [Compound 121, 4-amino-1-naphthol hydrochloride]",none
10,"O=C1C=C(Br)C(=O)c2ccccc21 [Compound 135, 2-bromo-1,4-naphthoquinone]",none
